Source: the supplement of paper PMC12889115
This is one part of the list. Values are raw readings; no control value is given beside them.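 In the initial screen, polymyxin B was used at a concentration that permeabilizes Salmonella's outer membrane but not its inner membrane. Maximum growth was set by DMSO wells with or without polymyxin B. Since plates varied, data were ranked per plate, and compounds giving the lowest OD600 advanced as hits.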

Tested on: Salmonella enterica serovar Typhimurium SL1344
Experiment: bacterial growth OD600 after 18 h with compound and polymyxin B; higher = more bacterial growth (less inhibition)
Details: 50 µM, Mueller-Hinton broth

Row | SMILES | bacterial growth OD600 (polymyxin B 0.75 µg/mL) | bacterial growth OD600 (polymyxin B 1 µg/mL)
1 | c1csc(CN2CCc3[nH]nc(-c4ccc5c(c4)OCO5)c3C2)c1 | 0.772 | 
2 | COc1cccc(-n2cc(CN(C)C(=O)c3cn(CC4CCCO4)nn3)cn2)c1 (stereo not drawn) |  | 1.03
3 | O=C1CCC(C(=O)N2CCCC(CCc3ccccc3F)C2)=NN1 (stereo not drawn) | 0.786 | 
4 | Cc1nc(N(C)C2CCCCC2)ncc1C(C)NC(=O)c1ccco1 (stereo not drawn) |  | 0.797
5 | CN(CCN1CCOCC1)C(=O)c1ccc2oc(CCCc3ccccc3)nc2c1 |  | 0.801
6 | O=C(CC1CCCC1)N1CCC(C2(c3cccnc3)NC(=O)N(Cc3ccsc3)C2=O)CC1 (stereo not drawn) | 0.831 | 
7 | O=C(NCc1cccs1)c1cc(COc2cccc(F)c2)[nH]n1 |  | 0.74
8 | CN(Cc1cc(-c2ccccc2)no1)C(=O)Cn1nnnc1CN1CCCC1 | 0.801 | 
9 | Cc1oc(-c2ccccc2NC(=O)CC2CCCC2)nc1CNC(=O)c1cccc(Cl)c1F | 0.718 | 
10 | Cc1occc1C(=O)NCc1cccnc1N1CCOCC1 |  | 0.929
11 | CCOC(=O)N1CCN(Cc2nc(NC(C)c3ccc(F)cc3)c3ccccc3n2)CC1 (stereo not drawn) | 0.897 | 
12 | CCC1CN(CCNC(=O)CCc2cccs2)Cc2cc(OC)ccc2O1 (stereo not drawn) | 0.69 | 
13 | Cc1noc(-c2ccc(N(C)Cc3ccncc3C)nc2)n1 |  | 1.05
14 | O=C(NC1CCCN(CCc2ccccc2)C1)c1cc2sccc2[nH]1 (stereo not drawn) |  | 0.634
15 | CN(C)c1ncccc1CNC(=O)Nc1cccc(F)c1 |  | 0.891
16 | Cc1oc(-c2ccc3ccccc3c2)nc1CN1CCN(C(=O)c2ccco2)CC1 |  | 0.521
17 | C=CCOc1ccccc1CN1CCOc2ccc(CN3CCN(Cc4ccccn4)CC3)cc2C1 | 0.775 | 

Records 12–13, reprinted for reference:
Row | SMILES | bacterial growth OD600 (polymyxin B 0.75 µg/mL) | bacterial growth OD600 (polymyxin B 1 µg/mL)
12 | CCC1CN(CCNC(=O)CCc2cccs2)Cc2cc(OC)ccc2O1 (stereo not drawn) | 0.69 | 
13 | Cc1noc(-c2ccc(N(C)Cc3ccncc3C)nc2)n1 |  | 1.05

Next part.

Row | SMILES | bacterial growth OD600 (polymyxin B 0.75 µg/mL) | bacterial growth OD600 (polymyxin B 1 µg/mL)
18 | COc1cccc(N2C(=O)CN(C(=O)CC3=CCCCC3)CC2C)c1 (stereo not drawn) | 0.718 | 
19 | Cc1ccc(-c2ccc(C(=O)N3CCC4(CCCN(C)C4=O)C3)cc2)o1 (stereo not drawn) | 0.784 | 
20 | COc1cc(CN2CCN(Cc3ccc(C)s3)CC2CCO)cc(OC)c1 (stereo not drawn) |  | 0.928
21 | CN(C(=O)CC1(c2ccc(-c3ccccc3)cc2)CC(=O)N(C2CC2)C1=O)C1CCOCC1 (stereo not drawn) | 0.006 | 
22 | C[C@@H]1CN(C2(C(=O)N[C@H]3CC[C@H](O)CC3)Cc3ccccc3C2)C[C@H](C)O1 | 0.847 | 
23 | COc1ccccc1C1CN(CCNC(=O)CC2NC(=O)c3ccccc32)Cc2ccccc2O1 (stereo not drawn) | 0.837 | 
24 | COCc1ccc(C(=O)Nc2ccc(-c3nc(CNC(=O)CCc4scnc4C)c(C)o3)cc2)o1 | 0.813 | 
25 | O=C([C@@H]1C[C@H]1c1ccccc1)N1CCc2onc(-c3ccc(Cl)cc3)c2C1 | 0.226 | 
26 | Cc1ccccc1N1C(=O)CN(C(=O)c2cnsn2)CC1C (stereo not drawn) | 0.831 | 
27 | Cc1nc(N2CCC(NCC3C4CC5CC(C4)CC3C5)CC2)nc2cc(S(C)(=O)=O)ccc12 (stereo not drawn) | 0.786 | 
28 | O=C(c1cnn(-c2ncc3c(n2)-c2ccccc2CC3)c1C1CC1)N1CCN(Cc2ccccc2)CC1 | 0.721 | 
29 | Cc1cnc(C)c(N2CCN(C(=O)c3cn(Cc4ccc(F)cc4)nn3)CC2)n1 |  | 0.949
30 | Cc1occc1C(=O)NC1CC(C)(C)Cc2nc(N3CCC(O)CC3)ncc21 (stereo not drawn) | 0.812 | 
31 | COC1CCCN(C(=O)CN2Cc3ccccc3OC(c3ccccc3F)C2)C1 (stereo not drawn) | 0.007 | 
32 | COc1ccc(O)c(CNC2COc3c(cccc3OC)C2)c1 (stereo not drawn) | 0.791 | 
33 | COc1ccc(CN(C)CC2CCCN(CCc3ccc(F)cc3)C2)c(OC)c1OC (stereo not drawn) |  | 0.747
